Values from PubChem BioAssay AID1159584 (Peter MacCallum Cancer Centre, 2016)

- Purpose: 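Genes whose loss is lethal only together with E-cadherin loss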 (primary screen)
- Cell system: human MCF10A breast epithelial cells, parental and CDH1-null
- Knock-down reagent: siRNA against human genes
- Measured: 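Cell viability by CellTiter-Glo ATP luminescence, each line scaled to the mean of mock wells across plates, then CDH1-null over parental ratio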
- Direction: CDH1-null / parental viability ratio: higher = CDH1-null cells survive relatively better than parental; CDH1-null viability vs mock: higher = more viable CDH1-null cells
This is a random part of about 18,000 reagents. Not all columns of the deposit are shown. The record does not give: the amount of reagent, the time to read-out.

gene symbol	PubChem SID	CDH1-null / parental viability ratio	CDH1-null viability vs mock (fraction of mock)
CDH6	SID134316297	1	0.62
PAGE1	SID152154163	0.9	0.94
MAP4K1	SID56478699	1.07	0.77
TTC23	SID152149751	0.73	0.64
PUDP	SID152156467	1	1.13
ABHD5	SID134314022	1.07	0.44
INTS5	SID134326597	1.17	0.94
PRAM1	SID134322503	0.9	0.57
MAGED2	SID134321226	1.39	1.17
SFTPA1	SID134318729	1.17	0.42
SFTPA1	SID135625545	1.01	0.92
JUP	SID134316029	0.96	0.46
HMGN2P46	SID135623487	0.95	0.36
AGBL5	SID135621781	1.23	0.74
GPR157	SID135623091	0.71	0.68
SPCS1	SID152151196	1.06	0.54
TNFSF15	SID134321517	0.96	0.66
CTNNBL1	SID134321468	0.81	0.72
WDR46	SID134314007	1.03	0.64
SMIM11	SID152154677	1.16	0.57
PKD1L1	SID134321370	0.94	0.6
AMHR2	SID56478996	0.89	0.73
FBXO6	SID134317544	0.91	0.74
L1TD1	SID152152103	0.9	0.7
TRIM44	SID135623314	0.88	0.82
POLR2I	SID134316532	1.03	0.4
GBP2	SID134316183	0.96	0.9
SLC39A7	SID152154023	1.33	0.48
SCNM1	SID152153512	0.72	0.52
PLEKHH2	SID152147740	0.96	0.53
TPPP2	SID135623390	1.01	0.68
RNF186	SID152150401	0.91	0.84
TMEM109	SID134318464	1.15	0.84
ITIH2	SID135623787	0.71	0.61
P2RY1	SID134311128	0.77	0.77
GAGE7	SID152153657	1.22	0.6
XIRP1	SID134323110	0.75	0.4
ZNF524	SID135621324	0.95	0.57
R3HDML	SID152150498	1.28	0.73
TBX10	SID152154278	0.73	0.6
MRPL53	SID134317189	1.1	0.86
TUBD1	SID135621263	1.05	0.8
SIGLEC5	SID134323305	1.12	0.9
PDE1B	SID134312686	0.97	0.6
XRN1	SID152152255	1	0.86
CRLF1	SID134312801	0.94	0.64
LONP2	SID134311360	1.03	0.64
ZNF609	SID152147851	1.03	0.76
ZC3H12A	SID152155166	1.14	1
CDC20B	SID134319651	1.02	1.18
SH3BGRL2	SID152150594	1.15	1.12
KRTAP10-2	SID135625057	0.87	0.7
ADH5	SID152151245	0.7	0.6
ZNF846	SID152150356	1.73	0.64
PCDHA5	SID134317488	1.04	1.08
PSMD14	SID134311446	1.49	0.76
SLC35D1	SID152154326	1.12	0.92
USH1G	SID134323074	0.86	0.62
TFCP2L1	SID134324088	0.76	0.38
RAB35	SID134314496	0.71	0.58
GPR55	SID152153675	1.53	1.04
RTL5	SID152151853	1.22	0.98
BRCA2	SID152148958	1.24	1.04
FAM133B	SID152150876	0.98	0.9
MYADM	SID152150936	0.88	0.5
PNP	SID135621803	1	0.94
GABRP	SID134311595	1.19	0.88
CCSAP	SID134320021	1.2	0.66

A portion from the list above, as a working copy:
gene symbol	PubChem SID	CDH1-null / parental viability ratio	CDH1-null viability vs mock (fraction of mock)
ADH5	SID152151245	0.7	0.6
ZNF846	SID152150356	1.73	0.64
PCDHA5	SID134317488	1.04	1.08
PSMD14	SID134311446	1.49	0.76
